From publication PMC8260207 come the findings set out here.

Protein sequences, listed by entry. Tags and fused reporters are not part of them.
UniProt Q8N9N2: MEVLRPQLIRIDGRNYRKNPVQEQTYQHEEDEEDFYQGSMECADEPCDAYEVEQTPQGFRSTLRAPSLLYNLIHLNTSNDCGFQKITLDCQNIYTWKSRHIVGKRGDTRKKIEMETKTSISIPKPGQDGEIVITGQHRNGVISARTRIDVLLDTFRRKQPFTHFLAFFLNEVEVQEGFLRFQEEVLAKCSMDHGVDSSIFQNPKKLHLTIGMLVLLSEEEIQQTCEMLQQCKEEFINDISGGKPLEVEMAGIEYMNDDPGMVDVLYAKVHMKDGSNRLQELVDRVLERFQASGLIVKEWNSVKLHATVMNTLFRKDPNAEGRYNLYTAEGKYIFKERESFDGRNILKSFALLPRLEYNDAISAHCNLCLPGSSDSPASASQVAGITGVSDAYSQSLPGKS
UniProt Q8N3C0: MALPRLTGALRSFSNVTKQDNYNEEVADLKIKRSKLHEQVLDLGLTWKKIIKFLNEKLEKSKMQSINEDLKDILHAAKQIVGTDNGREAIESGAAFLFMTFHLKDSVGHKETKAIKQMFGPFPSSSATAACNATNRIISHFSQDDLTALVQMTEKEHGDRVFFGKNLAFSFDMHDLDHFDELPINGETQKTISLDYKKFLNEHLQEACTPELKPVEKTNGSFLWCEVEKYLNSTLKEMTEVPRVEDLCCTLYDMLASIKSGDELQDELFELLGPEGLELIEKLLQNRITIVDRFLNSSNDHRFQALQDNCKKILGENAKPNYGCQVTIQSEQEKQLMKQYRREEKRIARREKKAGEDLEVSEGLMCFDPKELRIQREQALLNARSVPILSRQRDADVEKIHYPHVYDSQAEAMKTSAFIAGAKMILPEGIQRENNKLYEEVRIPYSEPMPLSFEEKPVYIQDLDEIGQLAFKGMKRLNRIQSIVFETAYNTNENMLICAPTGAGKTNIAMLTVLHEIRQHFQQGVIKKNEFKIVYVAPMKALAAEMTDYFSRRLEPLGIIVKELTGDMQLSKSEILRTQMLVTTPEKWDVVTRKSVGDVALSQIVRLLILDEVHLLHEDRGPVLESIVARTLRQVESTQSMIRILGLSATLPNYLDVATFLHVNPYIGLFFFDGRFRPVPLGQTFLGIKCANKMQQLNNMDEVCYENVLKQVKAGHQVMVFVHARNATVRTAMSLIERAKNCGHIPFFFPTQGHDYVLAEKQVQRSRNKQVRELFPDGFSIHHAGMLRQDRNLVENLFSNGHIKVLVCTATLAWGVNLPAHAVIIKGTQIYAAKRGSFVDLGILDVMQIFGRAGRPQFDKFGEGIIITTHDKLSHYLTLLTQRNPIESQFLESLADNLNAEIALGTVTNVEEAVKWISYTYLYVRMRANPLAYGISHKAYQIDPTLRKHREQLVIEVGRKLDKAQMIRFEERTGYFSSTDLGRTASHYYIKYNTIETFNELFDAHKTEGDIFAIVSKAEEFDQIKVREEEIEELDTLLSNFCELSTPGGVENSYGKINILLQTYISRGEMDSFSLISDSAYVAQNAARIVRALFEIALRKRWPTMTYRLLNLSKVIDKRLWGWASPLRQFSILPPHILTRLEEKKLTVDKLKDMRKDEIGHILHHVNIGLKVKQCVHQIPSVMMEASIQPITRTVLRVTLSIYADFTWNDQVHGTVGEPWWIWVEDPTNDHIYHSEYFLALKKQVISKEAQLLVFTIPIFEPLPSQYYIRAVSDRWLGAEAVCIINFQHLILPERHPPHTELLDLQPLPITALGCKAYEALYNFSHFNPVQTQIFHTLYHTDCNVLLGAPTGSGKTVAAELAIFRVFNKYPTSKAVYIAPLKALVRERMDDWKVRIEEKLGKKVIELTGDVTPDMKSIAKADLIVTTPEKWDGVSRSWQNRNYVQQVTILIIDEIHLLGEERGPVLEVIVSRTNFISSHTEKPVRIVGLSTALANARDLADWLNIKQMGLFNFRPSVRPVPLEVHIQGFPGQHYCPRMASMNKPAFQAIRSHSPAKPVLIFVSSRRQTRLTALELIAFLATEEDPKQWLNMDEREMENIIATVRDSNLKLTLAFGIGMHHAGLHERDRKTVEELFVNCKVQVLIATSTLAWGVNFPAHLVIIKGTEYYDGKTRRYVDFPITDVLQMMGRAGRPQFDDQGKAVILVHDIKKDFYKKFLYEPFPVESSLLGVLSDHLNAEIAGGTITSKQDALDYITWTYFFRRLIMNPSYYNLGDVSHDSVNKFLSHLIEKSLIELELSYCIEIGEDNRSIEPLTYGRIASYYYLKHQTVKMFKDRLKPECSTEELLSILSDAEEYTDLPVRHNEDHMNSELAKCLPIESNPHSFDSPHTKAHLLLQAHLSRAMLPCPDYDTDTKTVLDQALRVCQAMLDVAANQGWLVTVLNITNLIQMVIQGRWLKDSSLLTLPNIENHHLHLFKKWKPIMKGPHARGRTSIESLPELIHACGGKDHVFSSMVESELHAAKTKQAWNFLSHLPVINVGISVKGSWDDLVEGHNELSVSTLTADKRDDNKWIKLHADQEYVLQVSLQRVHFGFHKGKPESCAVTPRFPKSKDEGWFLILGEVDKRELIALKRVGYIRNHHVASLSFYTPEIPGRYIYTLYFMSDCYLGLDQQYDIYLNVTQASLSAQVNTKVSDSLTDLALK

These are yes or no findings as the source states them, for the method shown. Binding seen in cells or lysates may run through a third protein. Here binding means that the protein was enriched with, or labelled near, the bait; the list need not be complete.

Assay in all cases: affinity purification with mass spectrometry; ANTI-FLAG M2 Affinity Gel against Protein G Agarose on whole cell extract (Benzonase, 150 mM NaCl) of Flp-In T-REx HEK293 cells expressing Flag-HA-tagged ASCC1, ASCC2 or ASCC3; elution with 3xFLAG peptide; SILAC
The target of assay [1] is ASCC1 (human (endogenous in HEK293)) (UniProt Q8N9N2).
Assay [2] has as its target T1, ASCC2 (human (endogenous in HEK293)) (UniProt Q9H1I8).
T1 sequence: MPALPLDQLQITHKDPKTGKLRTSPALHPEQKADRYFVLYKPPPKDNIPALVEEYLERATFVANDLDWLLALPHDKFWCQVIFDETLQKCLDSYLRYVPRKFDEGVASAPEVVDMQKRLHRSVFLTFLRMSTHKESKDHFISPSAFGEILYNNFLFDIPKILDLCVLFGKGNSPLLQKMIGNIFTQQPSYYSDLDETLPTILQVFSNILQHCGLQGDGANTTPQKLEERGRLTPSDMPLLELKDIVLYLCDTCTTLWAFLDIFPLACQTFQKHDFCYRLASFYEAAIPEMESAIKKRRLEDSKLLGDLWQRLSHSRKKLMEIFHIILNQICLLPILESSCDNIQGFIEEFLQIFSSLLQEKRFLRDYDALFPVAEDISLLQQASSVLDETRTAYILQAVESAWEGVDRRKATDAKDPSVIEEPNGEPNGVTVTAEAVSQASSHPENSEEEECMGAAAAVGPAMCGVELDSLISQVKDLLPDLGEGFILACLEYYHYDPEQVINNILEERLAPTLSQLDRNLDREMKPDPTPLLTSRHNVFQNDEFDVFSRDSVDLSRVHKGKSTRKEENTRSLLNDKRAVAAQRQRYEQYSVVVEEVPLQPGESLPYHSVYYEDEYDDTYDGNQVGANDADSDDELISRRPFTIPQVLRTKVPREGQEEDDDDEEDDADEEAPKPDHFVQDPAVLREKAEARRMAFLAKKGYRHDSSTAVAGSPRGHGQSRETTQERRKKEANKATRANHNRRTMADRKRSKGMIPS

Assay [3] has as its target ASCC3 (human (endogenous in HEK293)) (UniProt Q8N3C0).

On to ASCC3 (from UniProt Q8N3C0 1-2202), for which the binding entry in assay [1] and in assay [2] was “binds” throughout.

B1: TRIP4 (protein, UniProt Q15650 1-581)
chain: MAVAGAVSGEPLVHWCTQQLRKTFGLDVSEEIIQYVLSIESAEEIREYVTDLLQGNEGKKGQFIEELITKWQKNDQELISDPLQQCFKKDEILDGQKSGDHLKRGRKKGRNRQEVPAFTEPDTTAEVKTPFDLAKAQENSNSVKKKTKFVNLYTREGQDRLAVLLPGRHPCDCLGQKHKLINNCLICGRIVCEQEGSGPCLFCGTLVCTHEEQDILQRDSNKSQKLLKKLMSGVENSGKVDISTKDLLPHQELRIKSGLEKAIKHKDKLLEFDRTSIRRTQVIDDESDYFASDSNQWLSKLERETLQKREEELRELRHASRLSKKVTIDFAGRKILEEENSLAEYHSRLDETIQAIANGTLNQPLTKLDRSSEEPLGVLVNPNMYQSPPQWVDHTGAASQKKAFRSSGFGLEFNSFQHQLRIQDQEFQEGFDGGWCLSVHQPWASLLVRGIKRVEGRSWYTPHRGRLWIAATAKKPSPQEVSELQATYRLLRGKDVEFPNDYPSGCLLGCVDLIDCLSQKQFKEQFPDISQESDSPFVFICKNPQEMVVKFPIKGNPKIWKLDSKIHQGAKKGLMKQNKAV
Consider B1, for which the binding entry in assay [3], in assay [1] and in assay [2] was “binds” in each case.

B2: ASCC2 (protein, UniProt Q9H1I8 1-757)
chain: T1 sequence
As to B2, the binding result in assay [1] is recorded as “binds”.
